Assay results as given in paper PMC10714642.
These are yes or no findings as the source states them, for the method shown. Binding seen in cells or lysates may run through a third protein. A yes stands for co-enrichment or nearness to the bait. Other partners may have been found.

The chains behind the UniProt entries cited, without tags or fusion partners.
UniProt Q15208: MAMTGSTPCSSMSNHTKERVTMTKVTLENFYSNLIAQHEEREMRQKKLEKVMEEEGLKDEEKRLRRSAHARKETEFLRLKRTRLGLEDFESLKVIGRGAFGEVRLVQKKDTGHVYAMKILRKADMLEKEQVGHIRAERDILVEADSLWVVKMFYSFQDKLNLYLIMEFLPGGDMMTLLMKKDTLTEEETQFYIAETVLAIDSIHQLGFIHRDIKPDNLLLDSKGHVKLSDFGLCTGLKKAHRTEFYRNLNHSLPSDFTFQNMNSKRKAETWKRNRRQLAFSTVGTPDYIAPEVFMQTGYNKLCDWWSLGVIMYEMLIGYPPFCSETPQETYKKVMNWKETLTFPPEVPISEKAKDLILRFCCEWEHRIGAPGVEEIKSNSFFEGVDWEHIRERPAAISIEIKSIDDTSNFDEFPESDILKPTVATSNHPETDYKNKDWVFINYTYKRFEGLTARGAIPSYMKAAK

Target: T1, cytoplasmic activation/proliferation-associated protein-1 (Caprin-1) (human (Bxpc-3 and Panc-1 cells)) (UniProt Q14444)
T1 sequence: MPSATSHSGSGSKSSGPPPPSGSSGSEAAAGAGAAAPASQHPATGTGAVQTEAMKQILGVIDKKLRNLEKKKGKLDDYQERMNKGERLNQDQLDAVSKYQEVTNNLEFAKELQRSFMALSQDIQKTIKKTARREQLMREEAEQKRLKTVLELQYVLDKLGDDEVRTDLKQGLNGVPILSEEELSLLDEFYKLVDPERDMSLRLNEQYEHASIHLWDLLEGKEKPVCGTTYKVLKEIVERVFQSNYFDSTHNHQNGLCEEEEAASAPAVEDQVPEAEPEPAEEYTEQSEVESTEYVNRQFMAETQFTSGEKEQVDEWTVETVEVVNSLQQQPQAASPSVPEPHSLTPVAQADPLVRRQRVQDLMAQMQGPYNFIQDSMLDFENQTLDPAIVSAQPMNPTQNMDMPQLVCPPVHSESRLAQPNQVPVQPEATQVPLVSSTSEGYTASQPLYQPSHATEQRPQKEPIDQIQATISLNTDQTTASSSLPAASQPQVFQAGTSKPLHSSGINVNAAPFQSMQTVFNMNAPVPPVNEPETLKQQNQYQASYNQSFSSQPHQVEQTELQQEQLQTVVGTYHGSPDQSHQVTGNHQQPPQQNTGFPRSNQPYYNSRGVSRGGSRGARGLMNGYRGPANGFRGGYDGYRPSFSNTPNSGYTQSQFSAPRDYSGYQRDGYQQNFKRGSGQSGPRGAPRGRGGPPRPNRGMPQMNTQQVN
Assay: affinity purification with mass spectrometry; proteins eluted from the Caprin-1 Co-IP resolved on 10% SDS-PAGE, Coomassie stained, in-gel digested, LC-MS/MS (LTQ Orbitrap Velos), searched against the UniProt human database

## serine/threonine kinase 38 (STK38) (from UniProt Q15208 1-465)
  binding: binds
